# Measured values: the supplement of paper PMC12889115
# This is one part of the list. These are raw signals, not scaled to a control.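 In the initial screen, polymyxin B was used at a concentration that permeabilizes Salmonella's outer membrane but not its inner membrane. Maximum growth was set by DMSO wells with or without polymyxin B. Since plates varied, data were ranked per plate, and compounds giving the lowest OD600 advanced as hits.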
# Tested on: Salmonella enterica serovar Typhimurium SL1344
# Experiment: bacterial growth OD600 after 18 h with compound and polymyxin B; higher = more bacterial growth (less inhibition)
# Conditions: 50 µM, Mueller-Hinton broth
SMILES,bacterial growth OD600 (polymyxin B 0.75 µg/mL),bacterial growth OD600 (polymyxin B 1 µg/mL)
COCCCN1C(=O)CC(CC(=O)N2CCCCC2c2nccs2)(c2ccccc2OC)C1=O (stereo unspecified),0.949,
CN(CC1Cc2ccccc2O1)C(=O)CCC1(Cc2ccc(Cl)cc2)CCC(=O)N1 (stereo unspecified),0.883,
Cc1c(CNCC2(O)CCCN(CC3CCCCC3)C2=O)cnn1C (stereo unspecified),0.926,
O=C1N(Cc2ccc(F)c(F)c2)CCCC1(O)CNCc1ccccc1 (stereo unspecified),,0.923
OCc1ccc(CN2CCc3onc(C(c4ccccc4)c4ccccc4)c3C2)o1,0.632,
Cc1noc(C)c1CC(=O)NC1CC(=O)N(CC2CCCCC2)C1 (stereo unspecified),,0.922
CSCCC(=O)N1CCCC1C(=O)Nc1cccc(-n2cccn2)c1 (stereo unspecified),,1
CN(C)c1ncc2c(n1)CCCC2NC(=O)CCc1cnn(C)c1 (stereo unspecified),,0.969
O=C(c1cscn1)N1CCC2(CCCN(Cc3ccc(F)cc3)C2=O)C1 (stereo unspecified),,0.923
COc1cccc(CN2CCC(C(=O)Nc3ccccc3-c3cccc(OC)c3)CC2)c1,,0.005
COc1ccc2ccc(OCc3nc(C(=O)NC4CCC4)co3)cc2c1,,0.883
Cc1ccc(CNC(=O)c2coc(COc3ccccc3F)n2)s1,0.543,
CN1CCC(N(C)C(=O)CCC2CCCN(Cc3ccc(C#CC(C)(C)O)cc3)C2)CC1 (stereo unspecified),0.794,
O=C(c1ccc(N2CCC(NCc3scnc3-c3ccccc3)CC2)cc1)N1CCOCC1,0.792,
C#Cc1cccc(C(=O)N2CCc3onc(-c4cccc(F)c4)c3C2)c1,-0.001,
CCCN(CC1CC1)C(=O)c1cn(CCc2ccccn2)cc(C(=O)NCc2ccc(C)cc2)c1=O,0.892,

SMILES,bacterial growth OD600 (polymyxin B 0.75 µg/mL),bacterial growth OD600 (polymyxin B 1 µg/mL)
Cc1cc(C(=O)NCC2CCCN(S(=O)(=O)/C=C/c3ccccc3)C2)no1 (stereo unspecified),0.15,
O=C(c1ccc(Cn2cnnn2)cc1)N1CCCC(CCc2ccccc2)C1 (stereo unspecified),0.003,
COc1cccc(CC2(CO)CCCN(Cc3cc4ccccc4o3)C2)c1 (stereo unspecified),,1.04
COc1c(C)cc(C(=O)C2CCCN(Cc3nc4ccccc4n3C)C2)cc1C (stereo unspecified),,0.015
CC(C)N(C)CC1(O)CCCN(CCC2CCCCC2)C1=O (stereo unspecified),0.825,
CCOC(=O)N1CCC(NC2CCN(c3ccc(NC(=O)c4ccccc4F)cc3)CC2)CC1,0.797,
COCc1c(C(=O)NCC2(N3CCOCC3)CCCC2)cnn1-c1nccc(-c2cccs2)n1,0.813,
O=C1CCCN1CC1CCN(C(=O)C2CCC(=O)N(C3CCCC3)C2)CC1 (stereo unspecified),,0.862
O=C(CCC1CCN(Cc2cccc3c2OCO3)CC1)NCc1cccnc1,,0.014
Cc1ccc2c(CC(=O)NCCN3Cc4ccccc4OC(c4ccccc4F)C3)cc(=O)oc2c1 (stereo unspecified),0.803,
CCn1cc(C(=O)N2CCc3onc(-c4ccc5c(c4)OCO5)c3C2)cn1,0.663,
CC1(C)CC(=O)C=C(C(=O)N2CCCC(N3CCN(c4ccccc4F)CC3)C2)O1 (stereo unspecified),,0.991
CCOc1ccccc1CN1CCN(Cc2c(F)cccc2F)CC1CCO (stereo unspecified),,1.09
O=C(CCOc1ccccc1)Nc1ccnn1C1CCN(C2CCOCC2)CC1,,0.751
CC(C)(C)C(=O)Nc1ccnn1C1CCN(C(=O)CCc2ccc(F)cc2)CC1,,1.02

# Rewritten as tab-separated lines: part of the list above
SMILES	bacterial growth OD600 (polymyxin B 0.75 µg/mL)	bacterial growth OD600 (polymyxin B 1 µg/mL)
O=C(CCOc1ccccc1)Nc1ccnn1C1CCN(C2CCOCC2)CC1		0.751
CC(C)(C)C(=O)Nc1ccnn1C1CCN(C(=O)CCc2ccc(F)cc2)CC1		1.02
